{"source": "the supplement of paper PMC8728848", "binders": {"B1": {"name": "Gal 12 (Homo sapiens), Q96DT0 (protein)", "chain": "MSQPSGGRAPGTRIYSWSCPTVMSPGEKLDPIPDSFILQPPVFHPVVPYVTTIFGGLHAGKMVMLQGVVPLDAHRFQVDFQCGCSLCPRPDIAFHFNPRFHTTKPHVICNTLHGGRWQREARWPHLALRRGSSFLILFLFGNEEVKVSVNGQHFLHFRYRLPLSHVDTLGIFGDILVEAVGFLNINPFVEGSREYPAGHPFLLMSPRLEVPCSHALPQGLSPGQVIIVRGLVLQEPKHFTVSLRDQAAHAPVTLRASFADRTLAWISRWGQKKLISAPFLFYPQRFFEVLLLFQEGGLKLALNGQGLGATSMNQQALEQLRELRISGSVQLYCVHS"}}, "test_in_all_cases": "glycan array binding signal (z-score within array); higher = stronger binding", "details_in_all_cases": "glycan notation: IUPAC condensed, linker removed", "key": {"[1]": {"molecular_target": "Fuc(a1-2)Gal(b1-4)GlcNAc(b1-2)[Fuc(a1-2)Gal(b1-4)GlcNAc(b1-4)]Man(a1-3)[Fuc(a1-2)Gal(b1-4)GlcNAc(b1-2)Man(a1-6)]Man(b1-4)GlcNAc(b1-4)GlcNAc", "procedure,_shortened": "(§1)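 Glycan array data came from 3228 arrays in the Consortium for Functional Glycomics database, and only arrays with an available protein sequence were kept. Glycan names were put into IUPAC-condensed notation, and columns mapping to the same glycan were averaged. The binding signal is a within-array Z-score, averaged across arrays of one protein sequence run at different concentrations or buffers and across linkers. A negative Z-score can be read as non-binding.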"}, "[2]": {"molecular_target": "Fuc(a1-2)Gal(b1-4)GlcNAc(b1-3)Gal(b1-4)GlcNAc", "procedure,_shortened": "as §1"}, "[3]": {"molecular_target": "Fuc(a1-2)Gal(b1-4)GlcNAc(b1-3)Gal(b1-4)GlcNAc(b1-2)Man(a1-3)[Fuc(a1-2)Gal(b1-4)GlcNAc(b1-3)Gal(b1-4)GlcNAc(b1-2)Man(a1-6)]Man(b1-4)GlcNAc(b1-4)GlcNAc", "procedure,_shortened": "as §1"}, "[4]": {"molecular_target": "Fuc(a1-2)Gal(b1-4)GlcNAc(b1-3)Gal(b1-4)GlcNAc(b1-3)Gal(b1-4)GlcNAc", "procedure,_shortened": "as §1"}, "[5]": {"molecular_target": "Fuc(a1-2)Gal(b1-4)GlcNAc(b1-3)GalNAc", "procedure,_shortened": "as §1"}, "[6]": {"molecular_target": "Fuc(a1-2)Gal(b1-4)GlcNAc(b1-3)[Fuc(a1-2)Gal(b1-4)GlcNAc(b1-6)]GalNAc", "procedure,_shortened": "as §1"}, "[7]": {"molecular_target": "Fuc(a1-2)Gal(b1-4)GlcNAc(b1-3)[Fuc(a1-3)[Gal(b1-4)]GlcNAc(b1-6)]Gal(b1-4)Glc", "procedure,_shortened": "as §1"}, "[8]": {"molecular_target": "Fuc(a1-2)Gal(b1-4)GlcNAc(b1-6)GalNAc", "procedure,_shortened": "as §1"}, "[9]": {"molecular_target": "Fuc(a1-2)Gal(b1-4)GlcNAc6S", "procedure,_shortened": "as §1"}, "[10]": {"molecular_target": "Fuc(a1-2)Gal(b1-4)[Fuc(a1-3)]GlcNAc", "procedure,_shortened": "as §1"}, "[11]": {"molecular_target": "Fuc(a1-2)Gal(b1-4)[Fuc(a1-3)]GlcNAc(b1-2)Man(a1-3)[Fuc(a1-2)Gal(b1-4)[Fuc(a1-3)]GlcNAc(b1-2)Man(a1-6)]Man(b1-4)GlcNAc(b1-4)GlcNAc", "procedure,_shortened": "as §1"}, "[12]": {"molecular_target": "Fuc(a1-2)Gal(b1-4)[Fuc(a1-3)]GlcNAc(b1-2)Man(a1-3)[Fuc(a1-2)Gal(b1-4)[Fuc(a1-3)]GlcNAc(b1-2)Man(a1-6)]Man(b1-4)GlcNAc(b1-4)[Fuc(a1-6)]GlcNAc", "procedure,_shortened": "as §1"}, "[13]": {"molecular_target": "Fuc(a1-2)Gal(b1-4)[Fuc(a1-3)]GlcNAc(b1-2)[Fuc(a1-2)Gal(b1-4)[Fuc(a1-3)]GlcNAc(b1-4)]Man(a1-3)[Fuc(a1-2)Gal(b1-4)[Fuc(a1-3)]GlcNAc(b1-2)Man(a1-6)]Man(b1-4)GlcNAc(b1-4)GlcNAc", "procedure,_shortened": "as §1"}, "[14]": {"molecular_target": "Fuc(a1-2)Gal(b1-4)[Fuc(a1-3)]GlcNAc(b1-3)Gal(b1-4)[Fuc(a1-3)]GlcNAc", "procedure,_shortened": "as §1"}, "[15]": {"molecular_target": "Fuc(a1-2)Gal(b1-4)[Fuc(a1-3)]GlcNAc(b1-3)Gal(b1-4)[Fuc(a1-3)]GlcNAc(b1-3)Gal(b1-4)[Fuc(a1-3)]GlcNAc", "procedure,_shortened": "as §1"}, "[16]": {"molecular_target": "Fuc(a1-2)Gal(b1-4)[Fuc(a1-3)]GlcNAc(b1-3)GalNAc", "procedure,_shortened": "as §1"}, "[17]": {"molecular_target": "Fuc(a1-2)Gal(b1-4)[Fuc(a1-3)]GlcNAc(b1-3)[Neu5Ac(a2-6)Gal(b1-4)GlcNAc(b1-6)]Gal(b1-4)Glc", "procedure,_shortened": "as §1"}, "[18]": {"molecular_target": "Fuc(a1-2)Gal3S(b1-4)GlcNAc", "procedure,_shortened": "as §1"}, "[19]": {"molecular_target": "Fuc(a1-2)Gal6S(b1-3)GlcNAc", "procedure,_shortened": "as §1"}, "[20]": {"molecular_target": "Fuc(a1-2)Gal6S(b1-3)GlcNAc6S", "procedure,_shortened": "as §1"}, "Fuc(a1-2)Gal6S(b1-4)Glc": {"molecular_target": "Fuc(a1-2)Gal6S(b1-4)Glc", "procedure,_shortened": "as §1"}, "[21]": {"molecular_target": "Fuc(a1-2)Gal6S(b1-4)Glc6S", "procedure,_shortened": "as §1"}, "[22]": {"molecular_target": "Fuc(a1-2)Gal6S(b1-4)GlcNAc", "procedure,_shortened": "as §1"}, "Fuc(a1-2)[Gal(a1-3)]Gal": {"molecular_target": "Fuc(a1-2)[Gal(a1-3)]Gal", "procedure,_shortened": "as §1"}, "[23]": {"molecular_target": "Fuc(a1-2)[Gal(a1-3)]Gal(b1-3)GalNAc", "procedure,_shortened": "as §1"}, "[24]": {"molecular_target": "Fuc(a1-2)[Gal(a1-3)]Gal(b1-3)GalNAc(b1-3)Gal(a1-4)Gal(b1-4)Glc", "procedure,_shortened": "as §1"}, "[25]": {"molecular_target": "Fuc(a1-2)[Gal(a1-3)]Gal(b1-3)GlcNAc", "procedure,_shortened": "as §1"}, "[26]": {"molecular_target": "Fuc(a1-2)[Gal(a1-3)]Gal(b1-3)GlcNAc(b1-2)Man(a1-3)[Fuc(a1-2)[Gal(a1-3)]Gal(b1-3)GlcNAc(b1-2)Man(a1-6)]Man(b1-4)GlcNAc(b1-4)GlcNAc", "procedure,_shortened": "as §1"}, "[27]": {"molecular_target": "Fuc(a1-2)[Gal(a1-3)]Gal(b1-3)GlcNAc(b1-2)Man(a1-3)[Fuc(a1-2)[Gal(a1-3)]Gal(b1-3)GlcNAc(b1-2)Man(a1-6)]Man(b1-4)GlcNAc(b1-4)[Fuc(a1-6)]GlcNAc", "procedure,_shortened": "as §1"}, "[28]": {"molecular_target": "Fuc(a1-2)[Gal(a1-3)]Gal(b1-3)GlcNAc(b1-3)GalNAc", "procedure,_shortened": "as §1"}}, "note": "The list shows a part of the results."}
{"binder": "B1", "values": [{"measurement": "glycan array binding signal (z-score)", "setting": "[1]", "result": -0.145}, {"measurement": "glycan array binding signal (z-score)", "setting": "[2]", "result": -0.659}, {"measurement": "glycan array binding signal (z-score)", "setting": "[3]", "result": 0.889}, {"measurement": "glycan array binding signal (z-score)", "setting": "[4]", "result": 0.023}, {"measurement": "glycan array binding signal (z-score)", "setting": "[5]", "result": -0.012}, {"measurement": "glycan array binding signal (z-score)", "setting": "[6]", "result": -0.736}, {"measurement": "glycan array binding signal (z-score)", "setting": "[7]", "result": -0.761}, {"measurement": "glycan array binding signal (z-score)", "setting": "[8]", "result": 0.055}, {"measurement": "glycan array binding signal (z-score)", "setting": "[9]", "result": 1.1}, {"measurement": "glycan array binding signal (z-score)", "setting": "[10]", "result": 0.054}, {"measurement": "glycan array binding signal (z-score)", "setting": "[11]", "result": 1.49}, {"measurement": "glycan array binding signal (z-score)", "setting": "[12]", "result": 0.189}, {"measurement": "glycan array binding signal (z-score)", "setting": "[13]", "result": 3.71}, {"measurement": "glycan array binding signal (z-score)", "setting": "[14]", "result": -0.629}, {"measurement": "glycan array binding signal (z-score)", "setting": "[15]", "result": 0.109}, {"measurement": "glycan array binding signal (z-score)", "setting": "[16]", "result": 5.15}, {"measurement": "glycan array binding signal (z-score)", "setting": "[17]", "result": 0.008}, {"measurement": "glycan array binding signal (z-score)", "setting": "[18]", "result": -1.01}, {"measurement": "glycan array binding signal (z-score)", "setting": "[19]", "result": 0.631}, {"measurement": "glycan array binding signal (z-score)", "setting": "[20]", "result": 1.29}, {"measurement": "glycan array binding signal (z-score)", "setting": "Fuc(a1-2)Gal6S(b1-4)Glc", "result": 0.569}, {"measurement": "glycan array binding signal (z-score)", "setting": "[21]", "result": -0.156}, {"measurement": "glycan array binding signal (z-score)", "setting": "[22]", "result": -0.472}, {"measurement": "glycan array binding signal (z-score)", "setting": "Fuc(a1-2)[Gal(a1-3)]Gal", "result": 0.262}, {"measurement": "glycan array binding signal (z-score)", "setting": "[23]", "result": -0.6}, {"measurement": "glycan array binding signal (z-score)", "setting": "[24]", "result": -1.32}, {"measurement": "glycan array binding signal (z-score)", "setting": "[25]", "result": 0.787}, {"measurement": "glycan array binding signal (z-score)", "setting": "[26]", "result": -0.674}, {"measurement": "glycan array binding signal (z-score)", "setting": "[27]", "result": -0.117}, {"measurement": "glycan array binding signal (z-score)", "setting": "[28]", "result": 0.547}]}
